Laboratory results: patent US20080227863A1, “Organic Compounds” (Novartis AG, priority 2005, published 2008)
Some of these results come from one statement about several compounds together.

Test system: Haemonchus contortus
Experiment: In-vivo test against Haemonchus contortus in Mongolian gerbils on peroral administration
Details: H. contortus in Mongolian gerbils (Merones unquiculatus); 32 mg/kg p.o.; three days after treatment; Abbot's formula

SMILES: N#CC(C#N)(COc1ccccc1Cl)NC(=O)c1ccc(OC(F)(F)F)cc1 [Compound 1.3, N-[2-(2-Chloro-phenoxy)-1,1-dicyano-ethyl]-4-trifluoromethoxy-benzamide]
- efficacy (% reduction in worm numbers in comparison with a placebo treated group): more than 80%
